# Test results reported in the supplement of paper PMC12823440, “Inhibitors supercharge kinase turnover through native proteolytic circuits” (Nature, 2025).
# Sequences of proteins named here, by UniProt entry; tags and fusion partners are left off. A change or cut given only in a name is not applied to a line headed by its entry.
# UniProt P48729: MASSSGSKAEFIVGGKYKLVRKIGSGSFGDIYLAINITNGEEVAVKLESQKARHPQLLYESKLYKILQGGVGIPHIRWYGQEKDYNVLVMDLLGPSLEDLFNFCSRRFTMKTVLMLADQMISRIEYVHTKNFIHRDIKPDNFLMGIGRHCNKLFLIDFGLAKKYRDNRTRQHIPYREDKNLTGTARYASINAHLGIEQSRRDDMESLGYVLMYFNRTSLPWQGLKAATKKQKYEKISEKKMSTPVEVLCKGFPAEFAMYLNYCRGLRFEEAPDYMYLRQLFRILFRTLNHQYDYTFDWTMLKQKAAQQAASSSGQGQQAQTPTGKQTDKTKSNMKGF
# UniProt P48730: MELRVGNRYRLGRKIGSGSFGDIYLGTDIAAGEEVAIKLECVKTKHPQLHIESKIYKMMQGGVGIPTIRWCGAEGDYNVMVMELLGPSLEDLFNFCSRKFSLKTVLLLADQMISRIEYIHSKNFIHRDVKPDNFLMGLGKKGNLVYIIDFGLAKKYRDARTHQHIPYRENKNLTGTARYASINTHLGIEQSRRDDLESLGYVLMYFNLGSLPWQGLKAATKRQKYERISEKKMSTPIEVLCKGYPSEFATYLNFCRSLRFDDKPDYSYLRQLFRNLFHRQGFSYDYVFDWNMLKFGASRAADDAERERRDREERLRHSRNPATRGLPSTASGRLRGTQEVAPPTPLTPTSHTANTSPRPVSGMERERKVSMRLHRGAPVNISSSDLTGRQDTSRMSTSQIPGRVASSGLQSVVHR
# UniProt Q08345: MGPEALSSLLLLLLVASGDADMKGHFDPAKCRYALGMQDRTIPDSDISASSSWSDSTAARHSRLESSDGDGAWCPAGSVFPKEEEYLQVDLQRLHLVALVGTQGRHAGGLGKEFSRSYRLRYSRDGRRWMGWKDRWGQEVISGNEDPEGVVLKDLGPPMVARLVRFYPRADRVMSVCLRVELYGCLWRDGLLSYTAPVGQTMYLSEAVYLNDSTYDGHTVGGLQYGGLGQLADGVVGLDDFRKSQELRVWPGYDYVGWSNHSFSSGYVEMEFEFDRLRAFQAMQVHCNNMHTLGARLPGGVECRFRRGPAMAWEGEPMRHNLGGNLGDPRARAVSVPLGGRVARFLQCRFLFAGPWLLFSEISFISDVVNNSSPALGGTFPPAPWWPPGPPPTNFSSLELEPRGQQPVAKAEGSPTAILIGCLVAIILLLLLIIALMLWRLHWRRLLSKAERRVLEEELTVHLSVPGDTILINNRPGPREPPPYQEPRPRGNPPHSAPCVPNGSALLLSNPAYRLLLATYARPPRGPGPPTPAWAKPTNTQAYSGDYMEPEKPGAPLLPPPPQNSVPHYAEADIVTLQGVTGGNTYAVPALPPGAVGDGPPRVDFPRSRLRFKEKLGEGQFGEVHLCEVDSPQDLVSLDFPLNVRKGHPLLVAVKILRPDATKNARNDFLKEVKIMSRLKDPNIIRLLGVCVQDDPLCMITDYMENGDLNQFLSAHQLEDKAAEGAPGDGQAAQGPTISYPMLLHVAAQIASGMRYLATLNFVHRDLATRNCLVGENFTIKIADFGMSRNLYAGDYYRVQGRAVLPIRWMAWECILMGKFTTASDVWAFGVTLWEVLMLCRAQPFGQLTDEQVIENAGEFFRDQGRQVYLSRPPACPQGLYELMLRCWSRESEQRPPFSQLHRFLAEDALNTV
# UniProt Q9Y463, whole entry, looked up: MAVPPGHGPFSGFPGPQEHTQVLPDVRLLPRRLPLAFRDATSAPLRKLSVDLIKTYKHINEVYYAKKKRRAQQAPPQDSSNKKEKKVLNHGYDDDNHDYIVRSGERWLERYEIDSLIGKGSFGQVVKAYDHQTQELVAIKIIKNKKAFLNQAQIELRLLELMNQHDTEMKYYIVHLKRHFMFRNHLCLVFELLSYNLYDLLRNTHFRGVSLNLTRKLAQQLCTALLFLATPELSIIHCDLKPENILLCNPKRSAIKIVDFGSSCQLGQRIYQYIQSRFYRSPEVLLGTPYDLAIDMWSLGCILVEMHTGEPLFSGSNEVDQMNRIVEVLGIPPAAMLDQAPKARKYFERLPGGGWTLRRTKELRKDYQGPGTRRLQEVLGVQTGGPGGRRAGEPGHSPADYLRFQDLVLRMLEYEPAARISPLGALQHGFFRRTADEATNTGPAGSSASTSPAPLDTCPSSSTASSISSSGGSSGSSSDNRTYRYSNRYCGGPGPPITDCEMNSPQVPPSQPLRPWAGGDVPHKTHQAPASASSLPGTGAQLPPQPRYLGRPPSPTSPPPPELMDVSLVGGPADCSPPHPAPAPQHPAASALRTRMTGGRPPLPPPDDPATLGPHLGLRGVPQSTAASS
# UniProt Q92630: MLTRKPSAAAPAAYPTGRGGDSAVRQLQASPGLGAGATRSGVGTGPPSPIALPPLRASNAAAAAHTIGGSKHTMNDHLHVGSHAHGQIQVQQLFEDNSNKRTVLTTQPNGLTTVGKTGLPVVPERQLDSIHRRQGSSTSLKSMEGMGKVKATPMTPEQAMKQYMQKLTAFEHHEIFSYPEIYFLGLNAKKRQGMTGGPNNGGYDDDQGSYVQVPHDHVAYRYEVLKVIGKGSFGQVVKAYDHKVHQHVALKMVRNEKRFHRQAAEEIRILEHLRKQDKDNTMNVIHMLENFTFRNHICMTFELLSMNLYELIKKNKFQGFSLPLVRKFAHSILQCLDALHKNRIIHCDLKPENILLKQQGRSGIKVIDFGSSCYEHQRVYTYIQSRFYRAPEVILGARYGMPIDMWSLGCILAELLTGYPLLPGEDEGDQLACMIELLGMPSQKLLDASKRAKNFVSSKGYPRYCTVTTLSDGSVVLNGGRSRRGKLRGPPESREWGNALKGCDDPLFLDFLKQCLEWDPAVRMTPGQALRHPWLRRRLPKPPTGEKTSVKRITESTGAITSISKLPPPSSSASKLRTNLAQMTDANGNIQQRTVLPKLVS
# Where a name gives a salt, the structure may show the parent alone. This is one part of the list. The calls rarely recur for the same compound in another form.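 Kinases were expressed as nanoluciferase fusions in K562 cells and luminescence was read every 4 h between 2 and 18 h as percent of control, DMSO set to 100% and a positive control to 0%. A time point counts as decreased when the signal drops significantly (2 sigma). The hit call is the authors' own, does not follow from the count of time points alone, and its rule is not shown.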
# Tests used:
# Assay in all cases: number of time points (of 5) at which kinase-Nluc abundance scored as decreased, DMSO-normalised (count); higher = more persistent destabilization
# Conditions in all cases: K562; 2-18 h
# CSNK1A1 = CSNK1A1 (UniProt P48729)
# CSNK1D = CSNK1D (UniProt P48730)
# DDR1 = DDR1 (UniProt Q08345)
# DYRK1B = DYRK1B (UniProt Q9Y463)
# DYRK2 = DYRK2 (UniProt Q92630)
# EGFR = EGFR (UniProt P00533)
# EGFR_G719S = EGFR_G719S (UniProt P00533)
# EGFR_G719S_T790M = EGFR_G719S_T790M (UniProt P00533)
# EGFR_L718V = EGFR_L718V (UniProt P00533)
# EGFR_L858R = EGFR_L858R (UniProt P00533)
SMILES,number of time points (CSNK1A1),number of time points (CSNK1D),number of time points (DDR1),number of time points (DYRK1B),number of time points (DYRK2),number of time points (EGFR),number of time points (EGFR_G719S),number of time points (EGFR_G719S_T790M),number of time points (EGFR_L718V),number of time points (EGFR_L858R)
Cc1csc(-c2nnc(Nc3ccc(Oc4ncccc4-c4ccnc(N)n4)cc3)c3ccccc23)c1 (2.5 µM),0,0,0,0,0,0,0,0,0,0
O=C(/C=C/c1ccc(O)c(O)c1)c1ccc(O[C@@H]2O[C@H](CO)[C@@H](O)[C@H](O)[C@H]2O)c(O)c1O [Marein] (10 µM),0,0,0,0,0,0,0,0,0,0
Cc1cc2cc(Nc3ccnc(Nc4ccc5[nH]c(C)cc5c4)n3)ccc2[nH]1 (2.5 µM),0,0,1,0,0,0,0,0,0,0
O=C(Nc1cc(Oc2cc(F)c(NC(=O)C3(C(=O)Nc4ccc(F)cc4)CC3)cc2F)ccn1)C1CC1 [Altiratinib] (10 µM),0,0,4,0,0,0,3,0,0,0
N#Cc1c(-c2ccccc2)cc(-c2cc(Br)ccc2O)[nH]c1=O (10 µM),0,0,0,0,0,0,0,0,0,0
COc1ccc(Cn2cc(C(=O)N=Nc3c(O)[nH]c4c(C)cccc34)nn2)cc1 [MARK4 inhibitor 1] (10 µM),0,0,0,0,0,0,0,0,0,0
COCCOc1cnc(Sc2cc(C)c(-c3csc(NC(=O)c4ccncc4)n3)c(C)c2)cn1 [T-1101 (tosylate)] (2.5 µM),0,0,0,0,0,0,0,0,0,0
Cn1c(=O)c(F)c(Nc2ccc(I)cc2F)c2c(=O)n(C[C@@H](O)CO)cnc21 (10 µM),0,0,0,0,1,0,0,0,0,0
CN(C)CCN(Cc1ccc(Cl)cc1)c1ccccn1 [Chloropyramine hydrochloride] (10 µM),0,0,0,0,0,0,0,0,0,0
CC[C@@]1(c2ccccc2)C2=C(CC(C)(C)CC2=O)Nc2[nH]ncc21 (10 µM),0,0,0,0,0,0,0,0,0,0
C[C@]1(O)CCC[C@@H]1n1c(=O)c(C(F)F)cc2cnc(NC3CCN(S(C)(=O)=O)CC3)nc21 (10 µM),0,0,0,0,0,0,0,0,0,0
CCn1c(=O)c(-c2ccc(-c3cncc(C)n3)cc2Cl)cc2cnc(NCCC3CCN(C)CC3)nc21 (10 µM),0,0,0,0,0,0,0,0,0,0
CNC(=O)Nc1ccc(-c2cc(-c3ccnc(Nc4ccc(C)c(S(=O)(=O)N(C)C)c4)n3)ccn2)cc1 [hSMG-1 inhibitor 11e] (2.5 µM),1,0,0,0,4,0,0,0,0,0
Cc1cc(Nc2cc3ncccc3c(N[C@@H]3C[C@H]4CC[C@@H](C3)N4CCC#N)n2)n[nH]1 [Izencitinib] (10 µM),0,0,0,0,0,0,0,0,0,0
CCOc1cc(C(=O)N2CCC(N3CCN(C)CC3)CC2)ccc1Nc1ncc2c(n1)N(C1CCCC1)c1ccccc1C(=O)N2C (10 µM),0,0,0,0,0,0,0,0,0,0
COc1ccc2[nH]cc(/C=C3\C(=O)Nc4ccc(NC(=O)CCN5CCCCC5)cc43)c2c1 (2.5 µM),0,0,0,0,0,0,0,0,0,0
CC(C)=CC(=O)CCC(=O)N1CCN(Cc2cc3nc(-c4cccc5[nH]ncc45)nc(N4CCOCC4)c3s2)CC1 (10 µM),5,0,0,0,0,1,5,0,0,0
CC(C)c1cnc(-c2cc(Cl)ccc2F)cc1Nc1ccncc1C(=O)NC(CO)CO (2.5 µM),0,0,0,0,0,0,0,0,0,0

SMILES,number of time points (CSNK1A1),number of time points (CSNK1D),number of time points (DDR1),number of time points (DYRK1B),number of time points (DYRK2),number of time points (EGFR),number of time points (EGFR_G719S),number of time points (EGFR_G719S_T790M),number of time points (EGFR_L718V),number of time points (EGFR_L858R)
CN(CCNc1ccc2ncc(-c3ccc(C(N)=O)cc3)n2n1)C(=O)OC(C)(C)C (10 µM),0,0,0,0,0,0,1,0,0,0
"O=C(/C=C/c1ccc(O)c(O)c1)OC1CC(OC(=O)/C=C/c2ccc(O)c(O)c2)(C(=O)O)CC(O)C1O (stereo not given) [1,3-Dicaffeoylquinic acid] (10 µM)",0,0,0,0,0,0,0,0,0,0
CC(C)CN[C@H]1CS(=O)(=O)C[C@@H]1S(=O)(=O)c1ccc(Cl)cc1 (10 µM),0,0,0,0,0,0,0,0,0,0
CCn1c(C(=O)N(C2CC2)C2CC2)cc2c3c(ncn3C)c(Nc3cc(C)n(C)n3)nc21 (10 µM),0,0,0,0,0,0,0,0,0,0
CC(=O)c1c(C)c2cnc(Nc3ccc(N4CCN(CCCCNC(=O)COc5cccc6c5C(=O)N(C5CCC(=O)NC5=O)C6=O)CC4)cn3)nc2n(C2CCCC2)c1=O (stereo not given) (10 µM),0,0,0,0,0,0,0,0,0,0
Cc1ccc(NC(=S)NNc2c([N+](=O)[O-])cc(C(F)(F)F)cc2[N+](=O)[O-])cc1Cl (10 µM),0,0,0,0,0,0,0,0,0,0
O=C(CNC(=O)c1ccc(-c2ccccc2)cc1)NC1CCCc2ccccc21 (stereo not given) [TAO Kinase inhibitor 1] (10 µM),0,0,0,0,0,0,0,0,0,0
Cc1ccc(Nc2cc(-c3cccc(N4C(=O)c5ccccc5C4=O)c3)ncn2)cc1NS(C)(=O)=O (10 µM),0,0,0,1,1,0,0,0,0,0
NC1(Cc2ccc(Cl)cc2)CCN(c2ncnc3[nH]ccc23)CC1 (10 µM),0,0,0,0,0,0,0,0,0,0
C[C@@]1(O)CCC[C@H]1n1c(=O)c(C(F)F)cc2cnc(NC3CCN(S(C)(=O)=O)CC3)nc21 (2.5 µM),0,0,3,0,1,0,0,3,0,0
NCc1ccc(Nc2ncc(F)c(Nc3ccccc3)n2)cc1 (10 µM),0,0,0,0,0,0,0,0,0,0
CC(C)(NS(=O)(=O)c1ccc2c(Cl)cnc(N=C(N)N)c2c1)C(=O)O (10 µM),0,0,0,0,0,0,0,0,0,0
CCn1c(=O)c(-c2ccc(-c3cncs3)cc2Cl)cc2cnc(Nc3ccc(N4CCN(C)CC4)cc3)nc21 (2.5 µM),0,0,0,0,0,0,0,0,0,0
O=C(O)CCc1ccc(O)c(O)c1 [Dihydrocaffeic acid] (10 µM),0,0,0,0,0,0,0,0,0,0
CC(C)(C)NC(=O)c1cncn1C1CCN(c2ccc(-c3nnc(C(F)(F)F)o3)cn2)CC1 (10 µM),0,0,0,0,0,0,0,0,0,0
COC1(C(=O)N2Cc3nc(Cl)nc(N[C@H](C)c4cc(N)cc(C(F)(F)F)c4)c3C2)CCOCC1 (10 µM),0,0,0,0,0,0,0,0,0,0
Nc1ncnc2c1c(-c1ccc(Oc3ccccc3)cc1)nn2C1CCNCC1 [N-piperidine Ibrutinib (hydrochloride)] (10 µM),0,0,1,0,3,0,0,0,0,0
COc1cccc(-n2c(=O)[nH]c3cc(Cl)n(-c4ccc(-c5cccc(OC)c5O)cc4)c3c2=O)c1 (2.5 µM),0,0,0,0,0,0,0,0,0,0

# Full records as entered above. Values in the order: number of time points (CSNK1A1)	number of time points (CSNK1D)	number of time points (DDR1)	number of time points (DYRK1B)	number of time points (DYRK2)	number of time points (EGFR)	number of time points (EGFR_G719S)	number of time points (EGFR_G719S_T790M)	number of time points (EGFR_L718V)	number of time points (EGFR_L858R)
# `CC(C)(NS(=O)(=O)c1ccc2c(Cl)cnc(N=C(N)N)c2c1)C(=O)O` (10 µM) is listed as 0	0	0	0	0	0	0	0	0	0
# `NC1(Cc2ccc(Cl)cc2)CCN(c2ncnc3[nH]ccc23)CC1` (10 µM) is listed as 0	0	0	0	0	0	0	0	0	0
